Laboratory results published in PubChem BioAssay AID540276 (National Center for Advancing Translational Sciences (NCATS), 2011).
Out of some 300,000 compounds screened, about 5,400 (1.8%) were called active. Inconclusive results, whose numbers are uncertain, are shown with a selection of clear calls. The call rests on the fitted dose curve; tested in HEK293 cells. Potencies beside an inconclusive call are fits to weak or partial responses and may not hold up.
On the % scale 0 is the no-effect control and ±100 the full control effect; potency means the concentration at half of the fitted maximal effect.

Test: qHTS for inhibitors of binding or entry into cells for Marburg Virus
Settings: Marburg virus pseudotyped entry inhibition, cell reporter; activity change, negative = inhibition: at 37.8 µM (top of the series) unless noted
With `CN(C)CCCNC1CS(=O)(=O)CC1O` (centres undefined) the Potency was inconclusive: 0.112 µM [activator, full curve, poor fit].
In the case of `CCOC(=O)C1C(C(=O)OC)=C(C(=O)OC)c2ccccc2N1S(=O)(=O)C(F)(F)F` (centres undefined), the “activity change, negative = inhibition” value is reported as inactive: 3.18%.
In the case of `Cc1ccc(NC(=O)CN2C(=O)CC(C)Sc3ccccc32)c(C)c1` (centres undefined), the Potency is reported as inconclusive: 2.51 µM [inhibitor, single point].
For `O=C(Oc1ccccc1C(=O)Nc1ccccc1)c1ccc(Br)c([N+](=O)[O-])c1`, the Potency was inconclusive: 0.794 µM [activator, full curve, poor fit].
With `O=C(c1ccc(Nc2nc3ccccc3n3nnnc23)cc1)N1CCN(c2cccc(C(F)(F)F)c2)CC1` the “activity change, negative = inhibition” value was inactive: -6.75% [at 46.1 µM].
With `COc1ccccc1NS(=O)(=O)c1cc(C(=O)N2CCCCCC2)ccc1C` the Potency was inconclusive: 35.5 µM [inhibitor, single point].
For `CCc1nnc(NC(=O)CCC(=O)N2CCN(c3cccc(Cl)c3)CC2)s1`, the Potency was inconclusive: 22.4 µM [inhibitor, single point].
For `Cc1nnsc1NC(=O)OCc1ccc(Cl)cc1Cl`, the “activity change, negative = inhibition” value was inactive: 2.05%.
With `Cc1cc(NC(=O)CSc2nnnn2-c2ccc(F)cc2)no1` the “activity change, negative = inhibition” value was inactive: 2.91% [at 46.1 µM].
For `CC1Cc2ccccc2N1C1=CC(=O)CCC1` (centres undefined), the Potency was inconclusive: 35.5 µM [inhibitor, single point].
With `CCN1CCN(C(CC(C)C)c2nnnn2CS(=O)(=O)c2ccc(C)cc2)CC1` (centres undefined) the Potency was inconclusive: 11.2 µM [inhibitor, partial curve, poor fit].
In the case of `O=C(Nc1ccc(F)c(Cl)c1)C1CC2CCC1C2` (centres undefined), the Potency is reported as inconclusive: 35.5 µM [inhibitor, single point].
In the case of `CC(=O)Nc1ccc(S(=O)(=O)N(C)CC(=O)OCC(=O)N2CC(C)OC(C)C2)cc1` (centres undefined), the “activity change, negative = inhibition” value is reported as inactive: 9.55% [at 46.1 µM].
With `Cc1cccc(COc2ccccc2/C=N/Nc2ccc([N+](=O)[O-])cc2)c1` the Potency was inconclusive: 0.316 µM [inhibitor, partial curve, poor fit].
With `CC(C)(C)Nc1nc(Oc2ccc(=O)n(-c3ccccc3)n2)nc(N2CCOCC2)n1` the Potency was inconclusive: 35.5 µM [inhibitor, single point].
In the case of `Cc1cccn2c(=O)c3cc(C(=O)Nc4ccc(Cl)c(Cl)c4)sc3nc12`, the Potency is reported as inconclusive: 6.31 µM [inhibitor, single point].
For `NS(=O)(=O)c1cccc(NC(=O)CSc2nc3ccccc3c(=O)n2Cc2ccco2)c1`, the Potency was inconclusive: 10 µM [inhibitor, partial curve, poor fit].
In the case of `CCOc1ccc(S(=O)(=O)N(C)c2ccc(OCC(=O)NCCc3ccc(OC)cc3)cc2)cc1`, the “activity change, negative = inhibition” value is reported as inactive: -1.34%.
In the case of `Cc1ccccc1NC(=O)CSc1nc2cc3c(cc2cc1C)CCC3`, the Potency is reported as inconclusive: 3.26 µM [inhibitor, full curve].
In the case of `O=C(NCCCN1CCOCC1)C1(c2ccccc2)CCOCC1`, the “activity change, negative = inhibition” value is reported as inactive: 6.77%.
In the case of `Cc1nn(C(C)C(=O)N2CCN(c3ccccn3)CC2)c(=O)c2cc3occc3n12` (centres undefined), the “activity change, negative = inhibition” value is reported as inactive: -1.68%.
In the case of `COc1ccc(Nc2ncnc3c2cnn3-c2ccccc2)cc1OC`, the “activity change, negative = inhibition” value is reported as inactive: -10.7%.
In the case of `COC(=O)CNC(=O)COc1ccccc1`, the “activity change, negative = inhibition” value is reported as inactive: 5.12%.
With `O=C(c1ccc2nc3ccccc3c(=O)n2c1)N1CCN(Cc2ccc3c(c2)OCO3)CC1` the “activity change, negative = inhibition” value was inactive: 8.86%.
For `O[C@H]1CN(CC2CCCCC2)[C@@H](c2ccccc2)C[C@H]1n1cc(-c2ccc(F)cc2)nn1`, the Potency was inconclusive: 0.995 µM [inhibitor, full curve].
In the case of `N=c1c2c(n(Cc3cccc(Cl)c3)c3c1CCC3)CCCC2`, the Potency is reported as inconclusive: 6.51 µM [inhibitor, full curve, poor fit].
With `O=c1c2ccccc2nc(Cc2ccccc2)n1-c1ccc(O)cc1` the Potency was inconclusive: 35.5 µM [inhibitor, single point].
For `CCn1c(COc2cccc(OC)c2)nnc1SCC(=O)Nc1ccccc1C(=O)OC`, the Potency was inconclusive: 29.1 µM [inhibitor, single point].
For `Cc1nn(-c2ccccc2)c(C)c1C(=O)OCC(=O)NC(=O)NC1CCCCC1`, the Potency was inconclusive: 0.126 µM [activator, full curve, poor fit].
For `CCCCN(CC)C(=O)c1cc2c(=O)n3cccc(C)c3nc2s1`, the Potency was inconclusive: 3.55 µM [activator, single point].
For `CN(C)C(=O)Oc1cccc(OCc2n(C)c3ccccc3[n+]2C)c1`, the “activity change, negative = inhibition” value was inactive: 0.606%.
In the case of `C(=N\N1CCOCC1)/c1nc(-c2ccccc2)n2ccccc12`, the Potency is reported as inconclusive: 35.5 µM [activator, single point].
In the case of `Cc1ccc(-n2nc(C)c(Sc3ccccc3[N+](=O)[O-])c2N)cc1`, the Potency is reported as inconclusive: 35.5 µM [inhibitor, single point].
For `O=C(CCSCCc1ccccn1)Nc1c(F)cc(F)cc1Br`, the Potency was inconclusive: 5.62 µM [inhibitor, single point].
With `COc1cc(Br)cc(CNc2ccc(F)c([N+](=O)[O-])c2)c1O` the Potency was inconclusive: 12.6 µM [inhibitor, partial curve].
In the case of `COc1ccccc1CNC(=O)CN(Cc1ccc(Cl)cc1)S(C)(=O)=O`, the Potency is reported as inconclusive: 10 µM [inhibitor, partial curve, poor fit].
For `CCCN(Cc1nnc(-c2cccs2)o1)C(=O)c1cccc(S(=O)(=O)N2CCOCC2)c1`, the “activity change, negative = inhibition” value was inactive: -8.17%.
With `CCN(CC)CCCNC(=O)c1[nH]c2ccccc2c1Sc1ccc(Cl)cc1` the Potency was inconclusive: 22.4 µM [inhibitor, single point].
With `O=C(CSc1ccccc1)NCC1(N2CCOCC2)CCCCC1` the “activity change, negative = inhibition” value was inactive: -29%.
For `CCc1nnc(NC(=O)c2ncc(Cl)c(Cl)c2Cl)s1`, the Potency was inconclusive: 7.08 µM [activator, partial curve, poor fit].
For `O=C1C2C3C=CC(C3)C2C(=O)N1c1ccc(-c2nc3ccccc3o2)cc1` (centres undefined), the Potency was inconclusive: 3.98 µM [activator, partial curve, poor fit].
In the case of `COc1ccc(CCNC(=O)Cc2c(C)c3cc4c(C)coc4c(C)c3oc2=O)cc1`, the Potency is reported as inconclusive: 8.91 µM [activator, single point].
For `Cc1nc2c(c(C)nn2-c2ccccc2)c(C)c1CCC(=O)NCCCOC(C)C`, the Potency was inconclusive: 3.55 µM [inhibitor, partial curve, poor fit].
In the case of `O=C(Nc1ccc(-c2nc3cc(NC(=O)c4cccs4)ccc3o2)cc1)c1cccs1`, the Potency is reported as active: 8.2 µM.
With `CCOc1ncccc1C(=O)NCc1ccc(OC)cc1` the Potency was inconclusive: 2.31 µM [inhibitor, partial curve, poor fit].
In the case of `CCCCSc1nnc2c(n1)OC(C)N(C(C)=O)c1ccccc1-2` (centres undefined), the “activity change, negative = inhibition” value is reported as inactive: 23.6% [at 46.1 µM].
In the case of `CCOC(=O)c1c(C)[nH]c(/C(C)=N/O)c1C`, the Potency is reported as inconclusive: 8.91 µM [inhibitor, single point].
In the case of `C/C(CC(=O)NC12CC3CC(CC(C3)C1)C2)=N\NC(=O)Cc1cccs1`, the Potency is reported as inconclusive: 0.58 µM [inhibitor, single point].
With `Cc1nn2cc(-c3ccccc3)nc2s1` the Potency was inconclusive: 29.1 µM [inhibitor, single point].
For `COC(=O)c1sccc1NC(=O)C1CC(C)=C(C)CC1C(=O)O` (centres undefined), the “activity change, negative = inhibition” value was inactive: 1.79% [at 46.1 µM].
In the case of `COc1ccc2cc(CN(Cc3cccnc3)Cc3nnnn3Cc3ccccc3)c(=O)[nH]c2c1`, the Potency is reported as “inactive”.
With `N#CCCN(C(=O)COC(=O)c1cc2ccccc2oc1=O)c1ccccc1` the Potency was inconclusive: 5.62 µM [inhibitor, single point].
For `O=C(CCc1ccco1)CCc1ccco1`, the “activity change, negative = inhibition” value was inactive: 2.24%.
For `CC(C)N(Cc1ccccc1)C(=O)/C=C/c1ccccc1[N+](=O)[O-]`, the Potency was inconclusive: 7.94 µM [inhibitor, partial curve, poor fit].
In the case of `Cc1cccc(C(=O)OCC(=O)c2c(N)n(CC(C)C)c(=O)n(C)c2=O)c1[N+](=O)[O-]`, the Potency is reported as inconclusive: 20 µM [inhibitor, single point].
In the case of `Cc1cccc(/C=N/NC(=O)c2c(-c3ccccc3)noc2C)c1O`, the Potency is reported as inconclusive: 10 µM [inhibitor, partial curve, poor fit].
For `COc1cc(C(=O)c2c(C)c(CCC#N)n3ccccc23)cc(OC)c1OC`, the “activity change, negative = inhibition” value was inactive: -0.663% [at 46.1 µM].
With `O=C(c1ccco1)N1CCN(c2ccc(Cl)cc2)CC1` the Potency was inconclusive: 4.11 µM [activator, single point].
For `CCOC(=O)C(Cc1ccnnc1)=NO`, the Potency was inconclusive: 4.47 µM [inhibitor, single point].
With `Cc1ccc(NC(=O)CSCC(=O)Nc2nnc(C)s2)cc1` the “activity change, negative = inhibition” value was inactive: -2.94%.
For `COc1ccc(C(=O)Nc2nc(-c3ccc(S(=O)(=O)N4CCOCC4)cc3)cs2)cc1`, the Potency was inconclusive: 23.1 µM [inhibitor, partial curve, poor fit].
In the case of `CC(=O)c1ccc(NC(=O)c2ccccc2Sc2ncnc3sc(C)c(C)c23)cc1`, the Potency is reported as inconclusive: 8.91 µM [inhibitor, partial curve, poor fit].
For `COc1cc(OC)cc(C(=O)N[C@H](C(=O)OCc2cc(=O)oc3cc(C)ccc23)C(C)C)c1`, the Potency was inconclusive: 8.91 µM [inhibitor, partial curve, poor fit].
For `CCOc1ccc(N2C(=O)C(C)CNC2=S)cc1` (centres undefined), the “activity change, negative = inhibition” value was inactive: 27.5%.
For `Cc1ccc(N2C(=O)C(CN3CCCC3)C2c2ccccc2)cc1` (centres undefined), the Potency was inconclusive: 11.2 µM [inhibitor, partial curve, poor fit].
For `CC(C)(C)c1ccc(C(=O)OCC(=O)Nc2sc3c(c2C#N)CCC3)cc1`, the Potency was inconclusive: 1.46 µM [activator, full curve, poor fit].
In the case of `Cc1cc(C)n(CC(=O)NNC(=O)C2CC(=O)N(Cc3ccccc3Cl)C2)n1` (centres undefined), the “activity change, negative = inhibition” value is reported as inactive: 4.53%.
With `Cc1cc(C)nc(N2CCC(C(=O)NCCc3ccccc3)CC2)n1` the “activity change, negative = inhibition” value was inactive: -11.2%.
For `COCCC(=O)N1CCC(Oc2ccc(C(=O)NCCSC)cc2)CC1`, the Potency was inconclusive: 35.5 µM [activator, single point].
